# PubChem BioAssay AID1259421 (Broad Institute, 2018)
# About 610 (9.5%) of roughly 6,400 compounds were called active. This list was built around the results that the source calls inconclusive (neither active nor inactive); the mix of calls is not that of the screen. No stated cut-off is given here; in the data, active means activity change below about -70%; inconclusive means no clear call, values can overlap the other calls; inactive means above that.
# Experiment: Toxoplasma gondii ME49Luc growth in HeLa cells, luciferase, no IFN-y, primary screen (AID 1259421)
# Details: T. gondii ME49Luc in HeLa, 72 h, stronger effect = lower value, concentration not given here
row,SMILES,"activity change, negative = inhibition"
1,CN1CCc2cc(Cl)c(O)cc2[C@H]2c3ccccc3CC[C@@H]21,inactive: -4.73%
2,O=C1/C(=C/c2ccccc2)C[C@@]2(O)C3Cc4ccc(O)c5c4[C@@]2(CCN3CC2CC2)[C@H]1O5,inconclusive: -72.9%
3,C(#CCN1CCCC1)CN1CCCC1,inconclusive: -70.3%
4,COC(=O)C[C@@](O)(CCC(C)(C)O)C(=O)O[C@@H]1C(OC)=C[C@]23CCCN2CCc2cc4c(cc2[C@@H]13)OCO4,active: -83.3%
5,Cc1o[nH]c(=O)c1C[C@H](N)C(=O)O,inactive: 13.1%
6,C[C@]12CC[C@H](O)C[C@H]1CC[C@@H]1[C@@H]2CC[C@]2(C)[C@@H](C3=CC(=O)OC3)CC[C@]12O,active: -86.6%
